No constants are given. Whether binding was seen depends on the method and setting. Binding seen in cells or lysates may run through a third protein. Some results given as binding are weak or reduced against the parent protein; the word gives no strength. For some of these results: Tags and fused reporters may be left off the sequences shown. One block for each molecule: values may come before it.
Tests used:
[1] = target: T1, Flag-tagged MIM-B (missing in metastasis B; metastasis suppressor 1) (human) (UniProt O43312); experiment: co-IP; cells transfected with MIM-B lacking IMD or WH2 (pcDNA-3.1), compared with MIM-B; which protein was precipitated not given; RIPA lysis buffer, 4°C
T1 sequence: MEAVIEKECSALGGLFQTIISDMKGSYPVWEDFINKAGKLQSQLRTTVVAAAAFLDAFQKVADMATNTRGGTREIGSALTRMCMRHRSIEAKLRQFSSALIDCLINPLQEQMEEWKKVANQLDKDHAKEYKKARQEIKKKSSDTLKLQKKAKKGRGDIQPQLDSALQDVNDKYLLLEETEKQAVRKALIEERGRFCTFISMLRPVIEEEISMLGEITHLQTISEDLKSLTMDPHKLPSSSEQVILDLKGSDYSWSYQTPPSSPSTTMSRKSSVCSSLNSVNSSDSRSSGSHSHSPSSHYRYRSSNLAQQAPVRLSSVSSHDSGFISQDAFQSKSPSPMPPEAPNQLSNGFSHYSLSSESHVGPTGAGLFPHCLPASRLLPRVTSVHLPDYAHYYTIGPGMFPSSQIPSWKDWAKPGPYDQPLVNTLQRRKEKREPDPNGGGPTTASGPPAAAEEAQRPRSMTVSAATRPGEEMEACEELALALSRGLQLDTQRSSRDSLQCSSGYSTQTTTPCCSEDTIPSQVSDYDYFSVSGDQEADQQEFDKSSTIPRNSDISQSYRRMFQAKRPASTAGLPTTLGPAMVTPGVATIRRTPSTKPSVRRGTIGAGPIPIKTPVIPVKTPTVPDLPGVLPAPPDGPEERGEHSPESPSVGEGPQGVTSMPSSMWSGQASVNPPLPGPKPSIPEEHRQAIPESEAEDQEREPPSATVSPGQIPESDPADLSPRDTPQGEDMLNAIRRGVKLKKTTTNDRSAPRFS

By UniProt entry, the sequences of proteins in these tests, tags left out.
UniProt Q03135: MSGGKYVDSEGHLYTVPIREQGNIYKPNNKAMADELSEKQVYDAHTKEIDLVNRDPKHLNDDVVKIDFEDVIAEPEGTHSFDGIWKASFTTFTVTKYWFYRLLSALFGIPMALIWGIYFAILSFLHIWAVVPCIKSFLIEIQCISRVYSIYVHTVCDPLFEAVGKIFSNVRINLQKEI

[2] = target: T1, Flag-tagged MIM-B (missing in metastasis B; metastasis suppressor 1) (human); experiment: co-IP; Flag-MIM-B transfected into Hep3B and SMMC7721 cells; anti-Flag immunoprecipitation, anti-caveolin-1 immunoblot; RIPA lysis buffer (1% NP-40, 50 mM Tris-HCl pH 7.4, 150 mM NaCl, 1 mM EDTA), 4°C, protein A/G sepharose
[3] = target: T2, MIM-B (endogenous) (human (endogenous in MHCC97H)) (UniProt O43312); experiment: co-IP; endogenous proteins in MHCC97H cells; immunoprecipitation with anti-MIM-B or anti-caveolin-1 polyclonal antibodies, each in turn; RIPA lysis buffer (1% NP-40, 50 mM Tris-HCl pH 7.4, 150 mM NaCl, 1 mM EDTA), 4°C
T2 sequence: T1 sequence

[4] = target: caveolin-1 (endogenous) (human (endogenous in Hep3B, SMMC7721 and MHCC97H)) (UniProt Q03135); experiment: as above

binding [1]: binds | binding [2]: binds | binding [3]: binds
Molecule: caveolin-1 (endogenous) (from UniProt Q03135 1-178)

binding [4]: binds
B1: MIM-B (endogenous) (protein, UniProt O43312 1-755)
chain: T1 sequence

From article PMC5707034
